PubChem BioAssay (NCI)
What follows is the remainder of the data, with few or none of the hits. The source made the active and inactive calls. Rule as the data show it: active = growth inhibition above about 70%; inactive = the rest.

Key:
[1] = NCI Yeast Anticancer Drug Screen. Data for the rad52 strain (AID 147);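 also: 0% = growth of vehicle-treated control cultures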; settings: S. cerevisiae rad52 mutant growth inhibition, stronger effect = higher value
In short: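 Screen used a yeast mutant impaired in DNA repair. After compound exposure, growth was measured. Values reflect inhibition compared with vehicle-treated cells.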

[2] = NCI Yeast Anticancer Drug Screen. Data for the rad50EPP+ strain (AID 151);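 also: 0% = growth of vehicle-treated control cultures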; settings: S. cerevisiae rad50 mutant strain, stronger effect = higher value
In short: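 Exposing the rad50EPP+ strain to each compound, growth was compared with vehicle-only cultures to give inhibition.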

[3] = NCI Yeast Anticancer Drug Screen. Data for the mgt1 strain (AID 153); settings: S. cerevisiae mgt1 mutant growth inhibition, stronger effect = higher value
In short: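 Genetically defined yeast (mgt1) treated with compound; inhibition of growth expressed against vehicle-treated controls.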

[4] = NCI Yeast Anticancer Drug Screen. Data for the rad14 strain (AID 159);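 also: 0% = growth of vehicle-treated control cultures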; settings: S. cerevisiae rad14 strain growth inhibition, stronger effect = higher value
In short: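 Screen for anticancer potential: a yeast strain altered in DNA damage repair is grown with compound, and reduced growth is quantified against vehicle controls.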

[5] = NCI Yeast Anticancer Drug Screen. Data for the CLN2oe strain (AID 163);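 also: 0% = growth of vehicle-only control cultures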; settings: S. cerevisiae CLN2oe strain, stronger effect = higher value
In short: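 Values reflect how much compound exposure reduced yeast growth, referenced to vehicle-exposed cells. Assay organism is a strain with a defined genetic change affecting cell-cycle control.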

[6] = NCI Yeast Anticancer Drug Screen. Data for the wt2 strain (AID 169);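 also: 0% = growth of vehicle-treated yeast cultures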; settings: S. cerevisiae wt2 strain growth inhibition, stronger effect = higher value
In short: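 Values express reduction in yeast growth under compound treatment, referenced to vehicle-treated cells.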

[7] = NCI Yeast Anticancer Drug Screen. Data for the sgs1 strain (AID 173);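 also: 0% = growth of vehicle-only control cultures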; settings: S. cerevisiae sgs1 mutant, stronger effect = higher value
In short: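 Treat defined-mutant yeast with compound; measure growth; calculate inhibition relative to vehicle-treated cells.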

[8] = NCI Yeast Anticancer Drug Screen. Data for the rad18 strain (AID 177); settings: S. cerevisiae rad18 mutant growth inhibition, stronger effect = higher value
In short: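 A genetically defined yeast mutant impaired in DNA damage repair was treated with test compounds, then its growth was measured against cultures receiving vehicle alone.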

[9] = NCI Yeast Anticancer Drug Screen. Data for the wt1 strain (AID 149);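 also: 0% = growth of vehicle-treated wt1 cultures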; settings: S. cerevisiae wt1 strain (SPY 50644) growth inhibition, stronger effect = higher value
In short: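 Using yeast strain wt1, compound-induced growth inhibition was determined against vehicle-treated cultures.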

[10] = NCI Yeast Anticancer Drug Screen. Data for the mlh1 strain (AID 171);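 also: 0% = growth of vehicle-treated control cultures of the same strain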; settings: S. cerevisiae mlh1 strain growth inhibition, stronger effect = higher value
In short: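 Steps: expose the defined-mutant yeast strain to compound; expose a parallel culture to vehicle; measure growth; express compound effect as inhibition relative to the vehicle culture.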

Measured: growth inhibition

CSC1=NS(=O)(=O)c2cc(C(=O)NN(C)C(=O)c3cc4c(cc3Cl)SC(SC)=NS4(=O)=O)c(Cl)cc2S1
inactive: [1]; at 1.2 µM 1% | [1]; at 3.7 µM 0% | [1]; at 11.0 µM -2% | [1]; at 33.0 µM -8% | [1]; at 100.0 µM -1% | [2]; at 1.2 µM -3% | [2]; at 3.7 µM -2% | [2]; at 11.0 µM -2% | [2]; at 33.0 µM -6% | [2]; at 100.0 µM -18% | [3]; at 1.2 µM 3% | [3]; at 3.7 µM 7% | [3]; at 11.0 µM 7% | [3]; at 33.0 µM -6% | [3]; at 100.0 µM 5% | [4]; at 1.2 µM -3% | [4]; at 3.7 µM 2% | [4]; at 11.0 µM 4% | [4]; at 33.0 µM 4% | [4]; at 100.0 µM 2% | [5]; at 1.2 µM 5% | [5]; at 3.7 µM 8% | [5]; at 11.0 µM 3% | [5]; at 33.0 µM 3% | [5]; at 100.0 µM -5% | [6]; at 1.2 µM 4% | [6]; at 3.7 µM 8% | [6]; at 11.0 µM 6% | [6]; at 33.0 µM 8% | [6]; at 100.0 µM 5% | [7]; at 1.2 µM 1% | [7]; at 3.7 µM 4% | [7]; at 11.0 µM 3% | [7]; at 33.0 µM 2% | [7]; at 100.0 µM -1% | [8]; at 1.2 µM 0% | [8]; at 3.7 µM 2% | [8]; at 11.0 µM 0% | [8]; at 33.0 µM -4% | [8]; at 100.0 µM -15%

Cc1cc2c(C(C)C)c(O)c(O)c(C=Nc3ccc([N+](=O)[O-])cc3)c2c(O)c1-c1c(C)cc2c(C(C)C)c(O)c(O)c(C=Nc3ccc([N+](=O)[O-])cc3)c2c1O
inactive: [1]; at 1.2 µM -2% | [1]; at 3.7 µM -3% | [1]; at 11.0 µM -8% | [1]; at 33.0 µM -11% | [1]; at 100.0 µM -16% | [9]; at 1.2 µM -2% | [9]; at 3.7 µM -3% | [9]; at 11.0 µM -2% | [9]; at 33.0 µM -3% | [9]; at 100.0 µM 0% | [2]; at 1.2 µM 0% | [2]; at 3.7 µM -7% | [2]; at 11.0 µM -41% | [2]; at 33.0 µM -71% | [2]; at 100.0 µM -78% | [3]; at 1.2 µM -2% | [3]; at 3.7 µM -4% | [3]; at 11.0 µM -4% | [3]; at 33.0 µM 12% | [3]; at 100.0 µM -3% | [4]; at 1.2 µM -4% | [4]; at 3.7 µM -3% | [4]; at 11.0 µM -9% | [4]; at 33.0 µM -9% | [4]; at 100.0 µM -14% | [5]; at 1.2 µM 2% | [5]; at 3.7 µM -11% | [5]; at 11.0 µM -8% | [5]; at 33.0 µM -29% | [5]; at 100.0 µM -36% | [6]; at 1.2 µM -1% | [6]; at 3.7 µM -2% | [6]; at 11.0 µM 0% | [6]; at 33.0 µM 0% | [6]; at 100.0 µM 3% | [10]; at 1.2 µM -2% | [10]; at 3.7 µM -2% | [10]; at 11.0 µM -4% | [10]; at 33.0 µM -11% | [10]; at 100.0 µM -11% | [7]; at 1.2 µM 1% | [7]; at 3.7 µM 1% | [7]; at 11.0 µM -1% | [7]; at 33.0 µM -3% | [7]; at 100.0 µM -1% | [8]; at 1.2 µM 0% | [8]; at 3.7 µM -1% | [8]; at 11.0 µM -18% | [8]; at 33.0 µM -4% | [8]; at 100.0 µM -15%

CN(C)CCNC(=O)c1cc([N+](=O)[O-])cc2ccc(-c3ccccc3)nc12
inactive: [1]; at 1.2 µM -1% | [1]; at 3.7 µM -1% | [1]; at 11.0 µM -2% | [1]; at 33.0 µM 1% | [1]; at 100.0 µM 35% | [9]; at 1.2 µM -1% | [9]; at 3.7 µM -2% | [9]; at 11.0 µM -4% | [9]; at 33.0 µM -3% | [9]; at 100.0 µM -1% | [2]; at 1.2 µM 0% | [2]; at 3.7 µM 0% | [2]; at 11.0 µM 0% | [2]; at 33.0 µM 7% | [2]; at 100.0 µM 33% | [3]; at 1.2 µM -2% | [3]; at 3.7 µM -1% | [3]; at 11.0 µM -1% | [3]; at 33.0 µM -2% | [3]; at 100.0 µM 1% | [4]; at 1.2 µM 2% | [4]; at 3.7 µM 2% | [4]; at 11.0 µM 3% | [4]; at 33.0 µM 4% | [4]; at 100.0 µM 9% | [5]; at 1.2 µM 2% | [5]; at 3.7 µM -2% | [5]; at 11.0 µM -1% | [5]; at 33.0 µM -4% | [5]; at 100.0 µM -5% | [6]; at 1.2 µM -1% | [6]; at 3.7 µM 8% | [6]; at 11.0 µM -1% | [6]; at 33.0 µM 1% | [6]; at 100.0 µM 3% | [7]; at 1.2 µM -2% | [7]; at 3.7 µM 0% | [7]; at 11.0 µM 4% | [7]; at 33.0 µM 4% | [7]; at 100.0 µM 15% | [8]; at 1.2 µM 0% | [8]; at 3.7 µM 0% | [8]; at 11.0 µM -1% | [8]; at 33.0 µM 5% | [8]; at 100.0 µM 24%

O=C1OC(c2cccc([N+](=O)[O-])c2)Sc2ccccc21 (stereo not given)
inactive: [1]; at 1.2 µM -1% | [1]; at 3.7 µM -1% | [1]; at 11.0 µM 2% | [1]; at 33.0 µM 8% | [1]; at 100.0 µM 0% | [9]; at 1.2 µM -2% | [9]; at 3.7 µM -1% | [9]; at 11.0 µM 0% | [9]; at 33.0 µM 4% | [9]; at 100.0 µM 2% | [2]; at 1.2 µM -1% | [2]; at 3.7 µM 8% | [2]; at 11.0 µM 15% | [2]; at 33.0 µM 15% | [2]; at 100.0 µM 11% | [3]; at 1.2 µM 1% | [3]; at 3.7 µM 4% | [3]; at 11.0 µM 20% | [3]; at 33.0 µM 2% | [3]; at 100.0 µM -31% | [4]; at 1.2 µM 0% | [4]; at 3.7 µM 1% | [4]; at 11.0 µM 6% | [4]; at 33.0 µM 6% | [4]; at 100.0 µM 5% | [5]; at 1.2 µM 1% | [5]; at 3.7 µM 1% | [5]; at 11.0 µM 3% | [5]; at 33.0 µM 3% | [5]; at 100.0 µM 2%
